{"sequences": {"note": "Sequences of proteins named here, by UniProt entry; tags and fusion partners are left off. A line that says so, or that is headed by a name, gives the form on record, which may keep a tag or linker.", "UniProt P13569, with tags, fused parts or gaps DEL508-508": "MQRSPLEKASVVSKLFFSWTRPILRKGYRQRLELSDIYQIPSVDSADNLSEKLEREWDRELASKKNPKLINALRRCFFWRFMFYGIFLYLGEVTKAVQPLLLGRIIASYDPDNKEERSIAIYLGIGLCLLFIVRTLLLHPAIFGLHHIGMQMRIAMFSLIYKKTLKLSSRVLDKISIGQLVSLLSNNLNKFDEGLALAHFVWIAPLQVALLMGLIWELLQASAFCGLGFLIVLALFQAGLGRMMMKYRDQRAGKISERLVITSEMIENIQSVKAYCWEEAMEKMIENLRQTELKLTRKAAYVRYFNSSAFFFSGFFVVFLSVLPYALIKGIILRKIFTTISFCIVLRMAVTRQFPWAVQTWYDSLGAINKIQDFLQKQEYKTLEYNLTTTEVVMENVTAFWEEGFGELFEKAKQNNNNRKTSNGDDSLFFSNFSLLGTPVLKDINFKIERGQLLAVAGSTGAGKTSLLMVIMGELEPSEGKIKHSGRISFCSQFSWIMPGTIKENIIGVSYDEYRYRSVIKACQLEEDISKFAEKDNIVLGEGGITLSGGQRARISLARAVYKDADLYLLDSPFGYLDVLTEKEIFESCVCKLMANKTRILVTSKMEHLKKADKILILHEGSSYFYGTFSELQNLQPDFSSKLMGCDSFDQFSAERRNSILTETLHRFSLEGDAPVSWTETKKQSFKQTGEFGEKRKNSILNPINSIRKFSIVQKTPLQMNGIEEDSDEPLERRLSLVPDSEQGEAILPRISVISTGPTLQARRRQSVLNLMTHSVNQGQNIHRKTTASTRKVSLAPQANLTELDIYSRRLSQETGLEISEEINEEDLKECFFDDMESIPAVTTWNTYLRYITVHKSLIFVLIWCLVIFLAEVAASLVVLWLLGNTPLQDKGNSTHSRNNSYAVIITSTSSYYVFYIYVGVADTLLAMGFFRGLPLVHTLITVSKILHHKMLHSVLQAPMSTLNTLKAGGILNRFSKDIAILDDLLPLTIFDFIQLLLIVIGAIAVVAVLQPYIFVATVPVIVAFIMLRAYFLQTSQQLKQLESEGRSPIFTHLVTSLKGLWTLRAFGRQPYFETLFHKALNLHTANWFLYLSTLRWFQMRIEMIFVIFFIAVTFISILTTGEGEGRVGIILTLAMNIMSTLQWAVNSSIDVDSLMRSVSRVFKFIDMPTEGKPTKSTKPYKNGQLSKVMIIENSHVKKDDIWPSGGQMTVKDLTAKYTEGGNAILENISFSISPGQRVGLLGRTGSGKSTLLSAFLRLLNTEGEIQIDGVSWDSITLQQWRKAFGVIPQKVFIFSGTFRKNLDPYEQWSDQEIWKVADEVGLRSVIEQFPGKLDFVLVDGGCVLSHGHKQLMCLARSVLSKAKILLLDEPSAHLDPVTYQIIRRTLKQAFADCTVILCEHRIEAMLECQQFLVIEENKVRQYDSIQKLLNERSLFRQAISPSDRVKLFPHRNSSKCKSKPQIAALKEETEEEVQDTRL"}, "source": "patent US12269831B2", "about": "“Modulators of cystic fibrosis transmembrane conductance regulator” (Vertex Pharmaceuticals Incorporated, priority 2020, dated 2025)", "target": "CFTR (F508del/MF-HBE cells) (Homo sapiens, UniProt P13569, DEL508-508)", "experiment": "Ussing chamber assay of CFTR-mediated short-circuit currents (potentiator identification)", "details": "CFTR-mediated Isc, 18-24 h incubation at 37° C. with 10 μM (14S)-8-[3-(2-{dispiro[2.0.2.1]heptan-7-yl}ethoxy)-1H-pyrazol-1-yl]-... corrector, 20% human serum", "description": "Ussing Chamber Assay of CFTR-Mediated Short-Circuit Currents\nUssing chamber experiments were performed using human bronchial epithelial (HBE) cells derived from CF subjects heterozygous for F508del and a minimal function CFTR mutation (F508del/MF-HBE) and cultured as previously described (Neuberger T, Burton B, Clark H, Van Goor F Methods Mol Biol 2011:741:39-54). After four days the apical media was removed, and the cells were grown at an air liquid interface for >14 days prior to use.\nTo isolate the CFTR-mediated short-circuit (Isc) current, F508del/MF-HBE grown on Costar® Snapwell™ cell culture inserts were mounted in an Ussing chamber and the transepithelial ISC was measured under voltage-clamp recording conditions (Vhold=0 mV) at 37° C. The basolateral solution contained (in mM) 145 NaCl, 0.83 K2HPO4, 3.3 KH2PO4, 1.2 MgCl2, 1.2 CaCl2, 10 Glucose, 10 HEPES (pH adjusted to 7.4 with NaOH) and the apical solution contained (in mM) 145 NaGluconate, 1.2 MgCl2, 1.2 CaCl2, 10 glucose, 10 HEPES (pH adjusted to 7.4 with NaOH) and 30 μM amiloride to block the epithelial sodium channel. […] The CFTR-mediated Isc (μA/cm^2) for each condition was determined from the peak forskolin response to the steady-state current following inhibition. […]\nThe activity of the CFTR potentiator compounds on the CFTR-mediated Isc was determined in Ussing chamber studies as described above. […]", "note": "Structures were worked out from names or drawings and are uncertain."}
{"smiles": "C[C@@H]1CCCC(O)C[C@](O)(C(F)(F)F)C2=NN=C(O2)c2nc(c(C(F)(F)F)cc2N)O1", "note": "(single isomer, unassigned)", "values": [{"measurement": "EC50", "result": "< 500", "unit": "nM"}]}
